Assay results from patent US8883500B2, “Method of preparing adenosine-resistant anti-tumor T lymphocytes for adoptive immunotherapy” (Northeastern University, priority 2008, dated 2014).
Some results were stated once for a whole list of compounds, not compound by compound. At least one compound was matched to its structure with a doubt left.

System: CD8+ T cells
Test: Flowcytometric analysis (CD8 proportion, intracellular IFN-γ staining)
Assay type: cell-based, mice
Conditions: agonist 10 μM
Method: Cells recovered from mixed lymphocyte culture were labeled with phycoerythrin-conjugated anti-CD8, allophycocyanin-conjugated anti-CD4 and fluorescein-conjugated anti-CD69 mAb, and were analyzed by FACSCalibur (BD Biosciences). Cytokine production from CTL was analyzed by intracellular staining as described (Nishimura et al., 1999). After the stimulation with immobilized anti-CD3 and anti-CD28 mAb for 24 h, cells were further incubated in the presence of brefeldin A (10 μg ml^−1) for 2 h. Cells were fixed with 4% parafolmaldehyde-PBS for 15 min, permeabilized with permeabilizing buffer (50 mM NaCl, 5 mM EDTA, 0.02% NaN3, 0.5% Triton X-100, 10 mM Tris-HCl, pH 7.5) for 15 min, and stained with fluorescein-labeled anti-IFN-γ mAb. IFN-γ-producing CD8^+ cells were identified by cell surface staining using phycoerythrin-conjugated anti-CD8 mAb. All antibodies were obtained from BD Biosciences.

[1] = NECA-CTL (NECA only for the last 2 days)

Structure (SMILES): CCNC(=O)[C@H]1O[C@@H](n2cnc3c(N)ncnc32)[C@H](O)[C@@H]1O [NECA, 5′-N-ethylcarboxamidoadenosine]
- IFN-γ producers, decreased to [1]: 36-46%
- reduction of IFN-γ producers [1]: 20-35%
- IFN-γ producers, decreased from 60 to (control CTL): 17-21%
